No constants are given. Whether binding was seen depends on the method and setting. Binding seen in cells or lysates may run through a third protein. Some entries that bind do so weakly or less than the wild type. Tags and fused reporters may be left off the sequences shown.
Target: T1, FLAG-SREBP2Nt (SREBP2 N-terminal transcriptionally active domain, amino acids 1-482) (UniProt Q12772)
T1 sequence: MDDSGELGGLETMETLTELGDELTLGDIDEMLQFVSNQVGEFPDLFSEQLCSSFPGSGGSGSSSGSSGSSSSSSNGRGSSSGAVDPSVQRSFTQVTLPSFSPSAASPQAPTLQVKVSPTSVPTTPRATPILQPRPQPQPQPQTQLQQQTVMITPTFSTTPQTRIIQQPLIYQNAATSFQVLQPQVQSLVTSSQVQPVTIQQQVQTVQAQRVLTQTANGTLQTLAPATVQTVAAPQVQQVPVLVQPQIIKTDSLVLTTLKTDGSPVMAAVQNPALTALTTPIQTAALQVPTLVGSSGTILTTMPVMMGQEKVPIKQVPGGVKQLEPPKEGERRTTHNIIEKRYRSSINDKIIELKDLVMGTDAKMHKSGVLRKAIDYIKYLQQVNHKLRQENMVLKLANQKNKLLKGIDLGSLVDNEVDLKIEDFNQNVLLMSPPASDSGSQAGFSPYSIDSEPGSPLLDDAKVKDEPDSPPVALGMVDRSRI
Assay: co-IP

Sequences of proteins named here, by UniProt entry; tags and fusion partners are left off.
UniProt P25440: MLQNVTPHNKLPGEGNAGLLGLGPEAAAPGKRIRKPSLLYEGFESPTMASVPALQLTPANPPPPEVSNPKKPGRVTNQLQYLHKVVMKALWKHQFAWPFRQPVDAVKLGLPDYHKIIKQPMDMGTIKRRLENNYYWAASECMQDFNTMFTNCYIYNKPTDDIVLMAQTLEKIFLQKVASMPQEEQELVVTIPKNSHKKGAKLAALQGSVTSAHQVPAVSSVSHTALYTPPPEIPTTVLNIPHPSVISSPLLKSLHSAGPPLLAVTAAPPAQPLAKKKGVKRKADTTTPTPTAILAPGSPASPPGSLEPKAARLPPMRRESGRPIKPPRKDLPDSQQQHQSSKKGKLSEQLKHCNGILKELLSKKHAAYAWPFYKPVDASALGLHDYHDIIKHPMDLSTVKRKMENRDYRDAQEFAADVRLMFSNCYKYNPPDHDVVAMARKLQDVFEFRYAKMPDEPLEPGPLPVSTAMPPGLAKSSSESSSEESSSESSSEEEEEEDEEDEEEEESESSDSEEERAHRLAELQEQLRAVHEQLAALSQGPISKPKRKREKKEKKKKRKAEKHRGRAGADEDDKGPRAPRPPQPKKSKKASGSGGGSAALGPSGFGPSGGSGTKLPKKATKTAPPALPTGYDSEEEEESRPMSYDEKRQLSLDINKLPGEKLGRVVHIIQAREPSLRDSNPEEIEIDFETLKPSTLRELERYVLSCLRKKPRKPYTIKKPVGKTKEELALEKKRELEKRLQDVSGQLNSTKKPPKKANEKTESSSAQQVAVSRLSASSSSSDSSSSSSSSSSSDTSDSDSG

BRD2 (from UniProt P25440 1-801)
binding: binds

— article doi:10.1101/748236
